According to the supplement of paper PMC7666118:
The other results are listed elsewhere or left out.

Sequences of proteins named here, by UniProt entry; tags and fusion partners are left off. A change or cut given only in a name is not applied to a line headed by its entry.
UniProt P04406: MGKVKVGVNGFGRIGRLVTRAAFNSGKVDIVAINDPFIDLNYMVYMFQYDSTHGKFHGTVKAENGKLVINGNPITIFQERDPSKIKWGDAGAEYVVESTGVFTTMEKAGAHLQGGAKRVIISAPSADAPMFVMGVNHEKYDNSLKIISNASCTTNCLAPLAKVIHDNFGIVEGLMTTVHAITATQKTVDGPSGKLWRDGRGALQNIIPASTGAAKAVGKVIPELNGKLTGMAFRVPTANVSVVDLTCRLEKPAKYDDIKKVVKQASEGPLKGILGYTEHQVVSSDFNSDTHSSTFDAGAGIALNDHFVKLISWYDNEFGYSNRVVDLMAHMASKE
UniProt Q96RU3: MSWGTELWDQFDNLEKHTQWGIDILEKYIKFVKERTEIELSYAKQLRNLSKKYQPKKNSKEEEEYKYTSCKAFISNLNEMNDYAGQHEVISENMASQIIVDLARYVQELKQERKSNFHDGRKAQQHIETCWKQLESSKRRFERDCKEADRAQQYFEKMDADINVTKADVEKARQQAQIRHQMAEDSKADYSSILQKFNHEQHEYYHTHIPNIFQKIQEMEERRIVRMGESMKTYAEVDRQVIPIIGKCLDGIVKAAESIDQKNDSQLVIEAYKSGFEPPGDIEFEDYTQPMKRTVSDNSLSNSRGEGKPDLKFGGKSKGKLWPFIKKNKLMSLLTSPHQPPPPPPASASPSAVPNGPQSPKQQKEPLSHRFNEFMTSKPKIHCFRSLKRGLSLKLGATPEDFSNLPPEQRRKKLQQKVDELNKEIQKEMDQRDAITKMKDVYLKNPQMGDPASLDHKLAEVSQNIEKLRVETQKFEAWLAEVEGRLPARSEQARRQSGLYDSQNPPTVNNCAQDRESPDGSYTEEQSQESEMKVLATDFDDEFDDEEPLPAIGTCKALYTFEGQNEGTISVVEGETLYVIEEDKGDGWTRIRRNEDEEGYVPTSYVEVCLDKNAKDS
UniProt Q9UKA2: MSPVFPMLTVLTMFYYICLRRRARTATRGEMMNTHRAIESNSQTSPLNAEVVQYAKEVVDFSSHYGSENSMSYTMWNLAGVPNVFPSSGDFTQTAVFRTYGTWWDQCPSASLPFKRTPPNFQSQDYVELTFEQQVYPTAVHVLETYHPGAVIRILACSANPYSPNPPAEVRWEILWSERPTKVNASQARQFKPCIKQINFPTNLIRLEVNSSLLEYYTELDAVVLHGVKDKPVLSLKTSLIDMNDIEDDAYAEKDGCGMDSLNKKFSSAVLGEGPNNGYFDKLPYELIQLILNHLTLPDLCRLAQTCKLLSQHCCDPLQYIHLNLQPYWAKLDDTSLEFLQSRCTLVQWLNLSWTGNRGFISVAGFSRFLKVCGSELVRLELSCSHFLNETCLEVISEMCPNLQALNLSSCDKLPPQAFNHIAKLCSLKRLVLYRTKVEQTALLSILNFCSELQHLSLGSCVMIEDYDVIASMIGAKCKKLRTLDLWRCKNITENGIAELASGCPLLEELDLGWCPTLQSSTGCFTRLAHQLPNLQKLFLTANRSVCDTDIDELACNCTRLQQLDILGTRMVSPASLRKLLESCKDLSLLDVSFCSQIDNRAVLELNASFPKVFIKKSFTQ
UniProt Q9UKB1: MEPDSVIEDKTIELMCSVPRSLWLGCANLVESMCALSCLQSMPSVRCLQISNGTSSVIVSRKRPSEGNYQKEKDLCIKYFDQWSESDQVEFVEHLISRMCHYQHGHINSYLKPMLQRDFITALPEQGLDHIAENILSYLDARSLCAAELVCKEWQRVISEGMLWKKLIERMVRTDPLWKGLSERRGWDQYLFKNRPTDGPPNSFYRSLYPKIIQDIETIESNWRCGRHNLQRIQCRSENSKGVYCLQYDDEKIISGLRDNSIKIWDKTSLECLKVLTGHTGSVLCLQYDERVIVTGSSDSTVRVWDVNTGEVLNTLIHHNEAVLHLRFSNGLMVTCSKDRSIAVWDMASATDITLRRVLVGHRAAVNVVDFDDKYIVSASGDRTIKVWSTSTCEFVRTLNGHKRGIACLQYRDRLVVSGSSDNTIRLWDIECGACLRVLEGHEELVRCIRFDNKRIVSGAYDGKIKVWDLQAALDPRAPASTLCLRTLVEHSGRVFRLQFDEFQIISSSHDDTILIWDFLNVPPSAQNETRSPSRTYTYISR
UniProt Q8NB91: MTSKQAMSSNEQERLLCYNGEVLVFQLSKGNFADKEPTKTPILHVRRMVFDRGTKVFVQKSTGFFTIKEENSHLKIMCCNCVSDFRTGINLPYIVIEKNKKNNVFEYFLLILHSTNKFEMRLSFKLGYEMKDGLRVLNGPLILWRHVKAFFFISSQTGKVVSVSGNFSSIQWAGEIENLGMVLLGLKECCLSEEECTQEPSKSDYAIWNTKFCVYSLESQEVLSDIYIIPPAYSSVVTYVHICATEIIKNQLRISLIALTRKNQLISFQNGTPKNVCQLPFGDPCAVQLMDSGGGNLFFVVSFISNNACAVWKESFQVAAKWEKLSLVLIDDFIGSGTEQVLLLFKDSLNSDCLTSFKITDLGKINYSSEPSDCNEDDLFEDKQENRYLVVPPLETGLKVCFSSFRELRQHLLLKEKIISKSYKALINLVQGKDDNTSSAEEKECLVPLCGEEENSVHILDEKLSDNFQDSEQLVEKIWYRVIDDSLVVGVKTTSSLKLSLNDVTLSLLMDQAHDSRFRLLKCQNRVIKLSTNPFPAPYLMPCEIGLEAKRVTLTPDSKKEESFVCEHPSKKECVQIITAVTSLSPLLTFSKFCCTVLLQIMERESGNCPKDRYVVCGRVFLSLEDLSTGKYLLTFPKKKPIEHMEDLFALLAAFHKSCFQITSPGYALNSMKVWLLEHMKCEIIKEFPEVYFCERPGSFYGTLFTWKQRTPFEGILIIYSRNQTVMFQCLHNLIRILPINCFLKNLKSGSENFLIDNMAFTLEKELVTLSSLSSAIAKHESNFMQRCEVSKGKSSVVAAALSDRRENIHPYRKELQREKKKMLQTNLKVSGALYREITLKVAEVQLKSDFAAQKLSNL
UniProt Q9BYC5: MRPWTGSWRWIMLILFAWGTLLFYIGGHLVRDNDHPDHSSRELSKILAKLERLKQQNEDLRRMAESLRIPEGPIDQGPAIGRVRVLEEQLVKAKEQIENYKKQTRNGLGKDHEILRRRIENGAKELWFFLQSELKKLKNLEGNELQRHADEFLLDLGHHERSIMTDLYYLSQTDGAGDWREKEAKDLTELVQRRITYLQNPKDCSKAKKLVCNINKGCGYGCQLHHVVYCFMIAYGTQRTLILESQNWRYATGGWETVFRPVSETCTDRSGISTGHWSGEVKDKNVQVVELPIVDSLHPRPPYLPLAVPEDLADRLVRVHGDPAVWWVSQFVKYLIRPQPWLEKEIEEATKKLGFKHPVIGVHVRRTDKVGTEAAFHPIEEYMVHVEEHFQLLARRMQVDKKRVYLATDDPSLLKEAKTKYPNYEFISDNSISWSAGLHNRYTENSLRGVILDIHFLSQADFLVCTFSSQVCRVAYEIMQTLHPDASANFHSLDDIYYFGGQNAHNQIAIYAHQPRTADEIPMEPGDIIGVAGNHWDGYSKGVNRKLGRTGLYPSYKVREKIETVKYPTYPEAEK
UniProt Q96PZ2, whole entry: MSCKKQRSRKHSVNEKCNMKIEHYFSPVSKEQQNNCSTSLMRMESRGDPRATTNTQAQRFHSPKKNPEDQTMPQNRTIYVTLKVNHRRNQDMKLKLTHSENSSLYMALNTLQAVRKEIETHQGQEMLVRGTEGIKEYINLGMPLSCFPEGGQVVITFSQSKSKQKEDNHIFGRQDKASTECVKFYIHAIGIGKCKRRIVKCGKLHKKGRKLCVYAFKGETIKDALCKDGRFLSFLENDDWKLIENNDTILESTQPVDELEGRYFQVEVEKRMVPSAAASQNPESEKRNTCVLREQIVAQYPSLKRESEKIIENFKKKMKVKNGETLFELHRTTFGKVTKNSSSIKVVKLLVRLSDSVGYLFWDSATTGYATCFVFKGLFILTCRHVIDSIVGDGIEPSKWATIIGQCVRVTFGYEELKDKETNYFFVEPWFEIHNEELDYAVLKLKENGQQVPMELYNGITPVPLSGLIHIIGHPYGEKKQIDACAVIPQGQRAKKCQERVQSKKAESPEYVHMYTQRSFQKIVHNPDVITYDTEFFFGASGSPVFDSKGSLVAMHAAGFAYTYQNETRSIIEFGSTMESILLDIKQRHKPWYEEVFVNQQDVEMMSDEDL
UniProt Q9HAH7: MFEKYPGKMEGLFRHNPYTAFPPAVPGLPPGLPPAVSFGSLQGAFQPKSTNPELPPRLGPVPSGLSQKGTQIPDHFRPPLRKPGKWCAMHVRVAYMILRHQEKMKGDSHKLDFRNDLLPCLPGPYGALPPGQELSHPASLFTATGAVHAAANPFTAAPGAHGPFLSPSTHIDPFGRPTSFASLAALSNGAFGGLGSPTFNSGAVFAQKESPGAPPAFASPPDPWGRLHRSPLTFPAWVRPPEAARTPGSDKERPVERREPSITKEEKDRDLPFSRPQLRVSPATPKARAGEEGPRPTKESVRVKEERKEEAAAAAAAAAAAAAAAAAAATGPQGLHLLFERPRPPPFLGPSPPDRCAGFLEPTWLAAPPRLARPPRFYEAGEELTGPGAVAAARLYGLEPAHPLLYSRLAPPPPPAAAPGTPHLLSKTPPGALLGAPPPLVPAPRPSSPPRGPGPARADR
UniProt Q8NFF5: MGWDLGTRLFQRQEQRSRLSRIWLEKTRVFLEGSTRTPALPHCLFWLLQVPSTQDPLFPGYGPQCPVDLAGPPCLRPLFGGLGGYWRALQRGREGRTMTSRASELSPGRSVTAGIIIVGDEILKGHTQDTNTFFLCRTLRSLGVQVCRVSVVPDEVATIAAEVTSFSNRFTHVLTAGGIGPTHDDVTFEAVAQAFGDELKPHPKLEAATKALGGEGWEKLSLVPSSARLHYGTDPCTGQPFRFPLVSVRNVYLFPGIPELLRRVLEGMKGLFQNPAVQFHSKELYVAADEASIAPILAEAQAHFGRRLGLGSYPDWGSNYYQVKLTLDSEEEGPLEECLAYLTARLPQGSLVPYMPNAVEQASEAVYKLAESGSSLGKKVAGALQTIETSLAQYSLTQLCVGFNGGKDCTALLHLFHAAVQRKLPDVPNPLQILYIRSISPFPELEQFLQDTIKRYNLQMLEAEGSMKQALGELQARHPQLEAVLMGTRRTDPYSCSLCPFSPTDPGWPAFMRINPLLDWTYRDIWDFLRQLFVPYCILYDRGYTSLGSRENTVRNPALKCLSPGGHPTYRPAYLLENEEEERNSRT
UniProt P16930: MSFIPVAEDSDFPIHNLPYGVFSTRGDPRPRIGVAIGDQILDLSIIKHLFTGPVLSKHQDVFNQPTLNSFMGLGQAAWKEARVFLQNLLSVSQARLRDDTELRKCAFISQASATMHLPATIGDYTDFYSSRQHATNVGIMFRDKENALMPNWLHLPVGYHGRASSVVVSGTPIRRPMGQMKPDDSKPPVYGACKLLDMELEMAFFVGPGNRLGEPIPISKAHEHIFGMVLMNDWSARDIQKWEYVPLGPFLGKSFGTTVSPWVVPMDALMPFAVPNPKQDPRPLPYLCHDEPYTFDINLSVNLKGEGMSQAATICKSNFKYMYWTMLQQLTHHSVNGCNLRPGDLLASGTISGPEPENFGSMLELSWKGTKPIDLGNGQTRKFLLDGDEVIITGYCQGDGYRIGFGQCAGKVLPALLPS
UniProt Q7Z4H7: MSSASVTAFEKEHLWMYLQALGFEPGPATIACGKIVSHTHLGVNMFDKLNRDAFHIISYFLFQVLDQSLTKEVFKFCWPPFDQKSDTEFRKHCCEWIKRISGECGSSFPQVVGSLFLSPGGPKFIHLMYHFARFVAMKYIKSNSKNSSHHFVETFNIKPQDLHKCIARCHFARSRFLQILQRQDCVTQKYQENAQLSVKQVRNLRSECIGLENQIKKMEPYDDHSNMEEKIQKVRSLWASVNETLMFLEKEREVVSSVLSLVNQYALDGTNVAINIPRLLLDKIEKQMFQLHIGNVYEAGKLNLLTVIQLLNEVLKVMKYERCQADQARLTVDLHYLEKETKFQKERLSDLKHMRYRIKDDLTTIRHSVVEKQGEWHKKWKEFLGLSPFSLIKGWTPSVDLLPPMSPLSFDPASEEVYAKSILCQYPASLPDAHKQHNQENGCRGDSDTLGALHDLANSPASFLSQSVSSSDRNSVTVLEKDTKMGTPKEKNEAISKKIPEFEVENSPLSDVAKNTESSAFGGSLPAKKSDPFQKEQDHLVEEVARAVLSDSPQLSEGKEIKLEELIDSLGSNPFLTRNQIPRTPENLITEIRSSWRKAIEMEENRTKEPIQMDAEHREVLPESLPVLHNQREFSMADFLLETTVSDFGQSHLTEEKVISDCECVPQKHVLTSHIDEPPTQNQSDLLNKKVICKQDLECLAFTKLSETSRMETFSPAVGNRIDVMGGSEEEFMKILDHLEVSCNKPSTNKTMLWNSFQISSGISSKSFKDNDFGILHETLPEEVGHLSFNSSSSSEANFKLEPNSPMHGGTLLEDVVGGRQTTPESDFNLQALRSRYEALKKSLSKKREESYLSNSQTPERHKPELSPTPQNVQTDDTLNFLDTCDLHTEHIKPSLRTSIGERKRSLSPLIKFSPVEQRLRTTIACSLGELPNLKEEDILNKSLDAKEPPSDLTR

Compound: COc1ccc(Cn2ccc3ccc(C(=O)NO)cc32)cc1
Assay: dose-dependent thermal stabilisation call (2D-TPP, DLPTP, 10% FDR) (binary (1 = stabilised)); higher = stabilised by the compound
Conditions: system: HL-60 intact cells; concentration range 0.04-10 µM

| Target | dose-dependent thermal stabilisation call |
| --- | --- |
| FAM117B (UniProt Q6P1L5) | inactive: 0 |
| FBXO5 (UniProt Q9UKT4) | inactive: 0 |
| EXOSC1 (UniProt Q9Y3B2) | inactive: 0 |
| FAM103A1 (UniProt Q9BTL3) | inactive: 0 |
| GBA (UniProt P04062) | inactive: 0 |
| EXTL2 (UniProt Q9UBQ6) | inactive: 0 |
| FAM91A1 (UniProt Q658Y4) | inactive: 0 |
| GAPDH (UniProt P04406) | inactive: 0 |
| FBN2 (UniProt P35556) | inactive: 0 |
| FAM102B (UniProt Q5T8I3) | inactive: 0 |
| FNBP1 (UniProt Q96RU3) | inactive: 0 |
| FADS1 (UniProt O60427) | inactive: 0 |
| FARSA (UniProt Q9Y285) | inactive: 0 |
| FUT11 (UniProt Q495W5) | inactive: 0 |
| FBXL4 (UniProt Q9UKA2) | inactive: 0 |
| FH (UniProt P07954) | inactive: 0 |
| FAM105B (UniProt Q96BN8) | inactive: 0 |
| FAM118A (UniProt Q9NWS6) | inactive: 0 |
| FAM33A (UniProt Q8WVK7) | inactive: 0 |
| FDPS (UniProt P14324) | inactive: 0 |
| FAM76B (UniProt Q5HYJ3) | inactive: 0 |
| FBXW11 (UniProt Q9UKB1) | inactive: 0 |
| G3BP2 (UniProt Q9UN86) | inactive: 0 |

Looked up above.
dose-dependent thermal stabilisation call with FBXL4 (UniProt Q9UKA2) is entered as inactive: 0
dose-dependent thermal stabilisation call with G3BP2 (UniProt Q9UN86) is entered as inactive: 0
dose-dependent thermal stabilisation call with GAPDH (UniProt P04406) is entered as inactive: 0
dose-dependent thermal stabilisation call with FAM118A (UniProt Q9NWS6) is entered as inactive: 0
dose-dependent thermal stabilisation call with FADS1 (UniProt O60427) is entered as inactive: 0
dose-dependent thermal stabilisation call with FAM76B (UniProt Q5HYJ3) is entered as inactive: 0

Additional results follow.

| Target | dose-dependent thermal stabilisation call |
| --- | --- |
| FTL (UniProt P02792) | inactive: 0 |
| FANCB (UniProt Q8NB91) | inactive: 0 |
| FAM164A (UniProt Q96GY0) | inactive: 0 |
| FHOD1 (UniProt Q9Y613) | inactive: 0 |
| FDX1 (UniProt P10109) | inactive: 0 |
| FAM40A (UniProt Q5VSL9) | inactive: 0 |
| FAM172A (UniProt Q8WUF8) | inactive: 0 |
| FAM128A (UniProt Q6P582) | inactive: 0 |
| FYB (UniProt O15117) | inactive: 0 |
| GARS (UniProt P41250) | inactive: 0 |
| FUT8 (UniProt Q9BYC5) | inactive: 0 |
| FAM120B (UniProt Q96EK7) | inactive: 0 |
| EXOSC10 (UniProt Q01780) | inactive: 0 |
| FARS2 (UniProt O95363) | inactive: 0 |
| GALT (UniProt P07902) | inactive: 0 |
| FMNL2 (UniProt Q96PY5) | inactive: 0 |
| FAM134A (UniProt Q8NC44) | inactive: 0 |
| FKBPL (UniProt Q9UIM3) | inactive: 0 |
| GABPB1 (UniProt Q06547) | inactive: 0 |
| FAM135A (UniProt Q9P2D6) | inactive: 0 |
| FANCD2 (UniProt Q9BXW9) | inactive: 0 |
| EXOC1 (UniProt Q9NV70) | inactive: 0 |
| FAM111A (UniProt Q96PZ2) | inactive: 0 |

| Target | dose-dependent thermal stabilisation call |
| --- | --- |
| GALNT11 (UniProt Q8NCW6) | inactive: 0 |
| FLYWCH2 (UniProt Q96CP2) | inactive: 0 |
| GATC (UniProt O43716) | inactive: 0 |
| FEM1B (UniProt Q9UK73) | inactive: 0 |
| FYCO1 (UniProt Q9BQS8) | inactive: 0 |
| FAF1 (UniProt Q9UNN5) | inactive: 0 |
| EXOSC4 (UniProt Q9NPD3) | inactive: 0 |
| EZH2 (UniProt Q15910) | inactive: 0 |
| FAM98A (UniProt Q8NCA5) | inactive: 0 |
| FEM1A (UniProt Q9BSK4) | inactive: 0 |
| FAM20B (UniProt O75063) | inactive: 0 |
| FBXO6 (UniProt Q9NRD1) | inactive: 0 |
| GALM (UniProt Q96C23) | inactive: 0 |
| EXOC7 (UniProt Q9UPT5) | inactive: 0 |
| FABP5 (UniProt Q01469) | inactive: 0 |
| FAM125A (UniProt Q96EY5) | inactive: 0 |
| FAS (UniProt P25445) | inactive: 0 |
| FAM50A (UniProt Q14320) | inactive: 0 |
| FBRS (UniProt Q9HAH7) | inactive: 0 |
| FOXO3 (UniProt O43524) | inactive: 0 |
| FUNDC2 (UniProt Q9BWH2) | inactive: 0 |
| FNDC3A (UniProt Q9Y2H6) | inactive: 0 |
| FBL (UniProt P22087) | inactive: 0 |

| Target | dose-dependent thermal stabilisation call |
| --- | --- |
| FAM175A (UniProt Q6UWZ7) | inactive: 0 |
| FAM36A (UniProt Q5RI15) | inactive: 0 |
| FLJ12529 | inactive: 0 |
| FCHSD2 (UniProt O94868) | inactive: 0 |
| FARSB (UniProt Q9NSD9) | inactive: 0 |
| GABPA (UniProt Q06546) | inactive: 0 |
| FAM54A (UniProt Q6P444) | inactive: 0 |
| FMNL1 (UniProt O95466) | inactive: 0 |
| FAM65A (UniProt Q6ZS17) | inactive: 0 |
| FAM49B (UniProt Q9NUQ9) | inactive: 0 |
| FLJ45032 | inactive: 0 |
| ETNK1 (UniProt Q9HBU6) | inactive: 0 |
| GBAS (UniProt O75323) | inactive: 0 |
| GBE1 (UniProt Q04446) | inactive: 0 |
| FAM119A (UniProt Q8WXB1) | inactive: 0 |
| EVL (UniProt Q9UI08) | inactive: 0 |
| FBXO7 (UniProt Q9Y3I1) | inactive: 0 |
| FUS (UniProt P35637) | inactive: 0 |
| FLNA (UniProt P21333) | inactive: 0 |
| FAM158A (UniProt Q9Y3B6) | inactive: 0 |
| FIZ1 (UniProt Q96SL8) | inactive: 0 |
| FKSG27 (UniProt Q8WZA9) | inactive: 0 |
| GALNT6 (UniProt Q8NCL4) | inactive: 0 |

| Target | dose-dependent thermal stabilisation call |
| --- | --- |
| FOXK2 (UniProt Q01167) | inactive: 0 |
| FNTB (UniProt P49356) | inactive: 0 |
| FER (UniProt P16591) | inactive: 0 |
| FLOT1 (UniProt O75955) | inactive: 0 |
| FOXRED2 (UniProt Q8IWF2) | inactive: 0 |
| FTO (UniProt Q9C0B1) | inactive: 0 |
| FTSJD2 (UniProt Q8N1G2) | inactive: 0 |
| FUT4 (UniProt P22083) | inactive: 0 |
| GALNS (UniProt P34059) | inactive: 0 |
| FLAD1 (UniProt Q8NFF5) | inactive: 0 |
| FBXL8 (UniProt Q96CD0) | inactive: 0 |
| FAM62A (UniProt Q9BSJ8) | inactive: 0 |
| FDFT1 (UniProt P37268) | inactive: 0 |
| FKBP1A (UniProt P62942) | inactive: 0 |
| FAHD1 (UniProt Q6P587) | inactive: 0 |
| FGD3 (UniProt Q5JSP0) | inactive: 0 |
| FAH (UniProt P16930) | inactive: 0 |
| FAM29A (UniProt Q7Z4H7) | inactive: 0 |
| FNDC3B (UniProt Q53EP0) | inactive: 0 |
